These are yes or no findings as the source states them, for the method shown. Binding seen in cells or lysates may run through a third protein. Some binding calls cover weakened binding; strength is not graded here. For part of these data: Tags and fused reporters may be left off the sequences shown.

Chains of the proteins cited; added tags and fusions are not shown. Lines headed by an entry give the natural chain unless they say otherwise; changes in a name come on top.
UniProt P60174: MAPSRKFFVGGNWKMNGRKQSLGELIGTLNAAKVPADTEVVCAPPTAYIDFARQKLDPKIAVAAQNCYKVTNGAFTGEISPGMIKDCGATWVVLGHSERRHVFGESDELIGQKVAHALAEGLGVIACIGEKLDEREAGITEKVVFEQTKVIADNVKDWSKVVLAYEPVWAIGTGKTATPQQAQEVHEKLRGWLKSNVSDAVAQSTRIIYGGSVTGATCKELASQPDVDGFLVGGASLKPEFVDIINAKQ
UniProt Q09472: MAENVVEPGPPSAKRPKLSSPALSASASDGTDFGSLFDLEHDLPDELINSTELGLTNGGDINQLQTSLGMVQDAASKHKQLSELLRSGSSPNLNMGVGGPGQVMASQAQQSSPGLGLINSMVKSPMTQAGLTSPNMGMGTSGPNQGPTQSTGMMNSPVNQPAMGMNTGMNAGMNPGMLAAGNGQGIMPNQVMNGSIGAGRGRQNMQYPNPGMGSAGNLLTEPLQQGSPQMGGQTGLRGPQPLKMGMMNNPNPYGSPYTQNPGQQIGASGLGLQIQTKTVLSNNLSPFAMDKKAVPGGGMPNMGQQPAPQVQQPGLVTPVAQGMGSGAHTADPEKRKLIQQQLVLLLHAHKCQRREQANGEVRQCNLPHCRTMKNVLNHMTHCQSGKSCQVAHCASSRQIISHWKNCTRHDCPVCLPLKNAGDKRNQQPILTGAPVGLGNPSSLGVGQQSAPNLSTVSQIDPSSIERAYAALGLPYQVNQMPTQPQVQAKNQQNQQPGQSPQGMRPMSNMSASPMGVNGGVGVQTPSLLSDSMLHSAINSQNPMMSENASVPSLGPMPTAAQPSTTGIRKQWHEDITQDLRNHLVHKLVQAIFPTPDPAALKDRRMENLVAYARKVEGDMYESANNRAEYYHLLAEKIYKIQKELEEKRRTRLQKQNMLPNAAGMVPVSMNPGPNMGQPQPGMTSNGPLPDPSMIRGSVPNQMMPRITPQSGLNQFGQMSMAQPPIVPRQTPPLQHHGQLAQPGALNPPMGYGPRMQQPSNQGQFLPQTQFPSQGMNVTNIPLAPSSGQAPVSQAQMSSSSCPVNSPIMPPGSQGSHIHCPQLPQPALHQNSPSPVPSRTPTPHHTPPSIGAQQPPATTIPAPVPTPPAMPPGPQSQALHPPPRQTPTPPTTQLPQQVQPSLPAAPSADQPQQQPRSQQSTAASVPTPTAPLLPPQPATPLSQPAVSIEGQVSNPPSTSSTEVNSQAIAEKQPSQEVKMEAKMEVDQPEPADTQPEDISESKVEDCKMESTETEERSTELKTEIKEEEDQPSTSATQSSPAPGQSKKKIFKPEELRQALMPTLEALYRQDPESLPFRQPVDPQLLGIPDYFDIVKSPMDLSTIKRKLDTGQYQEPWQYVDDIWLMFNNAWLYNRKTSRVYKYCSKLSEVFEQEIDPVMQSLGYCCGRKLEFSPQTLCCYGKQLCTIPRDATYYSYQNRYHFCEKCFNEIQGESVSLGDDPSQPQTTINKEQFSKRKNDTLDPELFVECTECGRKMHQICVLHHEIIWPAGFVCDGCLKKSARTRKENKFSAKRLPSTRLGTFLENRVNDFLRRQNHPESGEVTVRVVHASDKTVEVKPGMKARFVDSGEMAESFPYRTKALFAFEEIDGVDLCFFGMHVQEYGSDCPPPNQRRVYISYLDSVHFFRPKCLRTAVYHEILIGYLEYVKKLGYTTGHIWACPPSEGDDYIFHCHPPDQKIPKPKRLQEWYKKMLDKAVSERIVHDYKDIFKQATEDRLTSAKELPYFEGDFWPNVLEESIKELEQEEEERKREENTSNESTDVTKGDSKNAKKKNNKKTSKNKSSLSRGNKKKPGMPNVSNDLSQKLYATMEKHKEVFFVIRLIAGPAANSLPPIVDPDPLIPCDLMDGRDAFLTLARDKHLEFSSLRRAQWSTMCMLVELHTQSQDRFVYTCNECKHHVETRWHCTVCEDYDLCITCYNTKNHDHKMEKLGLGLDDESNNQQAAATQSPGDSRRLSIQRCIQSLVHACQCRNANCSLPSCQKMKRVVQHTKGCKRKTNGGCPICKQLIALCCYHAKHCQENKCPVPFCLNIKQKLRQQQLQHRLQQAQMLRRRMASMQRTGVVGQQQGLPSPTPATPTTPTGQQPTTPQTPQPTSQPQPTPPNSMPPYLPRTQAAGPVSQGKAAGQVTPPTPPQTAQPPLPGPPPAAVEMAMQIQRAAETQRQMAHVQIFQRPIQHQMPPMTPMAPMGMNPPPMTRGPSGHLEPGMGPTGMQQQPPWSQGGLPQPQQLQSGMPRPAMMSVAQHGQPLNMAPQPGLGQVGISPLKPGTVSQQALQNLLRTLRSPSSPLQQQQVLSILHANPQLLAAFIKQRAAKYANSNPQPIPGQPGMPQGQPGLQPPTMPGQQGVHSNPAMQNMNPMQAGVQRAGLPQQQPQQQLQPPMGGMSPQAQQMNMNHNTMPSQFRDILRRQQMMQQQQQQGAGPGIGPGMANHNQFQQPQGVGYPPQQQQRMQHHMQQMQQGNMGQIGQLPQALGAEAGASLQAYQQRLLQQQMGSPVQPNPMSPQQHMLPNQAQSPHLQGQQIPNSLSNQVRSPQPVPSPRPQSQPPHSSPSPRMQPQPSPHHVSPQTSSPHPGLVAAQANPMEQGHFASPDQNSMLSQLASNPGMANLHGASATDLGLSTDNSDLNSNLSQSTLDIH

For experiment [1], the target named is Triosephosphate isomerase 1 (TPI1), endogenous (human (endogenous in MRC-5, WI-38 and 293T)) (UniProt P60174). The experiment can be described thus: co-IP; anti-TPI1 immunoprecipitates from MRC-5 and WI-38 whole-cell lysates, endogenous proteins; cells pretreated with TSA (2 uM) for 1 h; immunoblot for HDAC11 and p300. (In general: A western blot detects proteins with antibodies after separation by electrophoresis.)

Experiment [2] shares this target. The experiment can be described thus: co-IP; anti-TPI1 immunoprecipitates from 293T whole-cell lysates; cells with or without 5 ng/ml TGF-beta1 for 4 h before harvest; immunoblot for HDAC11 and p300.
For experiment [3], the target named is TPI1 in 293T cells transfected with acetyltransferases (Fig. S3A) (UniProt P60174). The experiment can be described thus: co-IP; 293T cells individually transfected with 5 acetyltransferases (PCAF, GCN5, CBP, p300, TIP60alpha), then co-immunoprecipitation; IP buffer 50 mM Tris-HCl pH 7.5, 150 mM NaCl, 10% glycerol, 0.5% NP-40.
The target of experiment [4] is TPI1, transiently expressed together with the HDAC proteins (Fig. S3B) (UniProt P60174). Description: co-IP; 11 human HDAC proteins each transiently expressed in combination with TPI1; interaction determined by co-immunoprecipitation.

Regarding “E1A binding protein P300 (p300), endogenous (from UniProt Q09472 1-2414)”, the binding result in experiment [1] and in experiment [2] was “binds” throughout.

For “E1A binding protein P300 (p300), transfected into 293T cells (Fig. S3A) (from UniProt Q09472 1-2414)”, the binding result in experiment [3] is recorded as “binds”.

B1: Histone deacetylase 11 (HDAC11), transiently expressed together with TPI1 (Fig. S3B) (protein, UniProt Q96DB2 1-347)
chain: MLHTTQLYQHVPETRWPIVYSPRYNITFMGLEKLHPFDAGKWGKVINFLKEEKLLSDSMLVEAREASEEDLLVVHTRRYLNELKWSFAVATITEIPPVIFLPNFLVQRKVLRPLRTQTGGTIMAGKLAVERGWAINVGGGFHHCSSDRGGGFCAYADITLAIKFLFERVEGISRATIIDLDAHQGNGHERDFMDDKRVYIMDVYNRHIYPGDRFAKQAIRRKVELEWGTEDDEYLDKVERNIKKSLQEHLPDVVVYNAGTDILEGDRLGGLSISPAGIVKRDELVFRMVRGRRVPILMVTSGGYQKRTARIIADSILNLFGLGLIGPESPSVSAQNSDTPLLPPAVP
In the case of B1, in experiment [4], the binding entry is “binds”.

B2: Histone deacetylase 11 (HDAC11), endogenous (protein, UniProt Q96DB2 1-347)
chain: MLHTTQLYQHVPETRWPIVYSPRYNITFMGLEKLHPFDAGKWGKVINFLKEEKLLSDSMLVEAREASEEDLLVVHTRRYLNELKWSFAVATITEIPPVIFLPNFLVQRKVLRPLRTQTGGTIMAGKLAVERGWAINVGGGFHHCSSDRGGGFCAYADITLAIKFLFERVEGISRATIIDLDAHQGNGHERDFMDDKRVYIMDVYNRHIYPGDRFAKQAIRRKVELEWGTEDDEYLDKVERNIKKSLQEHLPDVVVYNAGTDILEGDRLGGLSISPAGIVKRDELVFRMVRGRRVPILMVTSGGYQKRTARIIADSILNLFGLGLIGPESPSVSAQNSDTPLLPPAVP
In the case of B2, the binding result in experiment [1] and in experiment [2] was “binds” in each case.

(Values after PMC12529298.)
